# According to the supplement of paper PMC10849652:
# Sequences of proteins named here, by UniProt entry; tags and fusion partners are left off. A change or cut given only in a name is not applied to a line headed by its entry.
# UniProt Q8NEZ5: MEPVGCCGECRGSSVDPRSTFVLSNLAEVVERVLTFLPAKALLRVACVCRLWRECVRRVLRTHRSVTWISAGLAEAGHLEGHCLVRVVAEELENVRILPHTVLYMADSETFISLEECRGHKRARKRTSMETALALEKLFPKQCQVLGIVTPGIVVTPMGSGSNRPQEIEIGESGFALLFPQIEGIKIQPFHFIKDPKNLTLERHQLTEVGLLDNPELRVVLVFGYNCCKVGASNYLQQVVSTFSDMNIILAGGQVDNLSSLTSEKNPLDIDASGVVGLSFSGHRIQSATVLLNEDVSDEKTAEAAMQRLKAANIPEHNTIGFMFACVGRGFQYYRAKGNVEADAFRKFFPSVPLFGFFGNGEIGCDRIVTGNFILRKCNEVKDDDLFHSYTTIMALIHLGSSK
# UniProt Q14318: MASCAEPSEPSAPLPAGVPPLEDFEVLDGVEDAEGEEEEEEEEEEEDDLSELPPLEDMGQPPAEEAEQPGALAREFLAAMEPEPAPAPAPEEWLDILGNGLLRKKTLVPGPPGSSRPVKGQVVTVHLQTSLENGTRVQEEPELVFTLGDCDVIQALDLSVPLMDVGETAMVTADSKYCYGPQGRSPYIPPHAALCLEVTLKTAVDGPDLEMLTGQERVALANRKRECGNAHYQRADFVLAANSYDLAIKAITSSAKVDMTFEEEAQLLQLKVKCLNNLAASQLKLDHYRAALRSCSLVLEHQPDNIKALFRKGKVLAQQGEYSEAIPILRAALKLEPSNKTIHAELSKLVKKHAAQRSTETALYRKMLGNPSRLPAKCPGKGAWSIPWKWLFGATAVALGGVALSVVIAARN
# UniProt Q96ND0: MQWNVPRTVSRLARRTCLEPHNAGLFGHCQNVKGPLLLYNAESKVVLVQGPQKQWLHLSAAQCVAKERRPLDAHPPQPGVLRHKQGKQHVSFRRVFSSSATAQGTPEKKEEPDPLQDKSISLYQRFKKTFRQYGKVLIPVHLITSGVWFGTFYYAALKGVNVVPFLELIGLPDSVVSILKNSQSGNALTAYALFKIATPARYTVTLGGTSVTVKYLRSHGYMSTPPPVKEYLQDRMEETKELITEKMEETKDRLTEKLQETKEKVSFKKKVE
# UniProt Q6P4F2: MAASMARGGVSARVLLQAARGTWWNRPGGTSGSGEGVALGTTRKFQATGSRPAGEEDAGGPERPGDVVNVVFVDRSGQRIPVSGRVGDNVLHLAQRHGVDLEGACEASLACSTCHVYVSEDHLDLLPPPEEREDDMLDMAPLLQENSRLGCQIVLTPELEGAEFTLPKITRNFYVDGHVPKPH
# UniProt P49327, whole entry, looked up: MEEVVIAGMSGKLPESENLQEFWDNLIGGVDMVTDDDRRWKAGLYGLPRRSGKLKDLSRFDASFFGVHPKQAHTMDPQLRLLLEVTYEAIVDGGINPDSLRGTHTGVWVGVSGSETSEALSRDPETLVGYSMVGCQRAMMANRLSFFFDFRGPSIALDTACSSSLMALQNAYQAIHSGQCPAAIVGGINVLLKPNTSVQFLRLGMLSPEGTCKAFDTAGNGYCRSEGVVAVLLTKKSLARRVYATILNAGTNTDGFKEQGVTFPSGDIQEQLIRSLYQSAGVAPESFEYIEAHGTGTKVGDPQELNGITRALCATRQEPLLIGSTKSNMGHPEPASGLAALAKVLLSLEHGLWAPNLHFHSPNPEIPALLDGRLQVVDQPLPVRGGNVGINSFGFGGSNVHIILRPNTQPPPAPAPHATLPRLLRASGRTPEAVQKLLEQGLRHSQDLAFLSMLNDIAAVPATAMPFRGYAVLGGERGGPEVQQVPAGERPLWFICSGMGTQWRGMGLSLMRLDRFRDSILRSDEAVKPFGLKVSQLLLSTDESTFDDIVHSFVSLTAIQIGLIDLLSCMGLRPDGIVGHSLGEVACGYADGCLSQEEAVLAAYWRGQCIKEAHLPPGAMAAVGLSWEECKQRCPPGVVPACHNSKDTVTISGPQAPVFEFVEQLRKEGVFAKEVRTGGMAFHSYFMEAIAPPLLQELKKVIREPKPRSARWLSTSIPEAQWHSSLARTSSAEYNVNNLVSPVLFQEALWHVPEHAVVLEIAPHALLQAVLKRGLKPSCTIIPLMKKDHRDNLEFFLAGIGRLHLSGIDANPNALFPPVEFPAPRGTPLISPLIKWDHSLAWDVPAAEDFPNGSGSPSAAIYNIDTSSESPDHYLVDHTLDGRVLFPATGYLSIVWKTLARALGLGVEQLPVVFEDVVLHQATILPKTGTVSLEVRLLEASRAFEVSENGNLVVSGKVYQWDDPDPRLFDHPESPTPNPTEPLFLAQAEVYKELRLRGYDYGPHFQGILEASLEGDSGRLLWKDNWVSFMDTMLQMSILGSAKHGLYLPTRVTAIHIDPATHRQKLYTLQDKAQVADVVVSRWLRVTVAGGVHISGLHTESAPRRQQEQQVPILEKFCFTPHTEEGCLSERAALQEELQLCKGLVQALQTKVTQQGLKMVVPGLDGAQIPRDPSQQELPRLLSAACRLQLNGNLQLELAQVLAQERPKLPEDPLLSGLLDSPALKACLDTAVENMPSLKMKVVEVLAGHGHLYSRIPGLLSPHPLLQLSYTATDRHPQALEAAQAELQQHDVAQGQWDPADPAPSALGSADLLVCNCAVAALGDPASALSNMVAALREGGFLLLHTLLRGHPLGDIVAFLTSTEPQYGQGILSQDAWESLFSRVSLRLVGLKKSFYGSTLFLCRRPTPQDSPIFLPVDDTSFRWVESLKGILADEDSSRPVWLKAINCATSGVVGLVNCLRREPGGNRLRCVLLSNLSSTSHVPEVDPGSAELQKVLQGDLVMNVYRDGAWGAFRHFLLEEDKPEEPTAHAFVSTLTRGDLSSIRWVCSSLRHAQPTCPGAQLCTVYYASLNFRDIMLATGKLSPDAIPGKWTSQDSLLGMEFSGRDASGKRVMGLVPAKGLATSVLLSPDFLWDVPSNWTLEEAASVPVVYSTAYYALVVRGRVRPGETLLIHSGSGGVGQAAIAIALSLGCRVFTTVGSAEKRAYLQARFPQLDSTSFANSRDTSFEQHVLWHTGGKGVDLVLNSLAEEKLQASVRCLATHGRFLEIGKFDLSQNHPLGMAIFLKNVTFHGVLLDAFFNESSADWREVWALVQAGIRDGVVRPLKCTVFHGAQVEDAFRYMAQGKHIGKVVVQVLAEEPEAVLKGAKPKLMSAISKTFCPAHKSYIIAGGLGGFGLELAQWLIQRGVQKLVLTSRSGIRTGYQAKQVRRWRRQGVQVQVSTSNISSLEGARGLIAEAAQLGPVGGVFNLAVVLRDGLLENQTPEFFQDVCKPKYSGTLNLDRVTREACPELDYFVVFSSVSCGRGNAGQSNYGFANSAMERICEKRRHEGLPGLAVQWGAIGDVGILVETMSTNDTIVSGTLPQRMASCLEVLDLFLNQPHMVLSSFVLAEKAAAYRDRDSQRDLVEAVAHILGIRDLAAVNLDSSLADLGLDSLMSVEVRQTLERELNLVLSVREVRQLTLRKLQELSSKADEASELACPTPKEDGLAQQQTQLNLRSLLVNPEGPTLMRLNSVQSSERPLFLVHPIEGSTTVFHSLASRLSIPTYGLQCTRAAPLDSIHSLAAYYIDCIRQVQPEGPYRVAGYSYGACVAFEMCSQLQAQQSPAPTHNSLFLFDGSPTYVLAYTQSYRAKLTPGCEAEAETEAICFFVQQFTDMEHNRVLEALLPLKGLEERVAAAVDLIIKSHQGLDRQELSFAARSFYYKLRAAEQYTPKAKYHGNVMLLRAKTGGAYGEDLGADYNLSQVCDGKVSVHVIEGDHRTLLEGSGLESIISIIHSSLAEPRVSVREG
# UniProt Q86UX7, whole entry, looked up: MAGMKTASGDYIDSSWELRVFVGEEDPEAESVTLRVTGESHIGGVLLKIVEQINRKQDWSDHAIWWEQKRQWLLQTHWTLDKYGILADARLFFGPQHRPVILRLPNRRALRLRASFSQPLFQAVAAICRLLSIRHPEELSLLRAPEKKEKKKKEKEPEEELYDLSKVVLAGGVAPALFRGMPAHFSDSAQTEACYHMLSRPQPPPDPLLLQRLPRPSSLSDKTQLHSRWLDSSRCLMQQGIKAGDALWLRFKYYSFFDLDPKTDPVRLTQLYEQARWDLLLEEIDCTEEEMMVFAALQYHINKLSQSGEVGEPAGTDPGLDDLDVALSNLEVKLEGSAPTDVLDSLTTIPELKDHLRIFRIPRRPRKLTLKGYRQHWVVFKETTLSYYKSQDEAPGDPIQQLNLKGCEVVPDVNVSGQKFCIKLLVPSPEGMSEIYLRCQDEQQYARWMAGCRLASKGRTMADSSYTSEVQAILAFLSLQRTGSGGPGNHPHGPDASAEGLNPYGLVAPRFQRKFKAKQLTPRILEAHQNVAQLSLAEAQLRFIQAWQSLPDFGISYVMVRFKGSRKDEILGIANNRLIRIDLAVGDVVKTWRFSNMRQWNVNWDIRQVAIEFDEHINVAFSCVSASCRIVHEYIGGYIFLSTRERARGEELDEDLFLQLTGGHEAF
# UniProt O95684: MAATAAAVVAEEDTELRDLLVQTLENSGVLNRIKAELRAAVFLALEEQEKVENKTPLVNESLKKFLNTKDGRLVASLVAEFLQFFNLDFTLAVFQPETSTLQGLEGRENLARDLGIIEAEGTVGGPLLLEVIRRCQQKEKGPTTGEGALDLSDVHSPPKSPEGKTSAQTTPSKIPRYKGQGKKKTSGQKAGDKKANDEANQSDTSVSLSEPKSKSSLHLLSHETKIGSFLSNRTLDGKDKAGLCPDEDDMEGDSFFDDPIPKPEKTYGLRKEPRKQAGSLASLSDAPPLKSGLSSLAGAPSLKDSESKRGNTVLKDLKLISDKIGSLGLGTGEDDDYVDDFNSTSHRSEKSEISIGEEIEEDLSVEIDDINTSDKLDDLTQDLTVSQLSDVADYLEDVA
# UniProt Q9Y680: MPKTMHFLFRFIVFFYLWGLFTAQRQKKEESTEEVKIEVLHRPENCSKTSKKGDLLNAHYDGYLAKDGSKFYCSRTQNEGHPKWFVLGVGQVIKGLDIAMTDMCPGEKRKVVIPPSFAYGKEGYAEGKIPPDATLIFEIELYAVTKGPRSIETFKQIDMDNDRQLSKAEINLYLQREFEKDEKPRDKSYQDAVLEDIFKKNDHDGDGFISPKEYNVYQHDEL
# UniProt Q8N0W3: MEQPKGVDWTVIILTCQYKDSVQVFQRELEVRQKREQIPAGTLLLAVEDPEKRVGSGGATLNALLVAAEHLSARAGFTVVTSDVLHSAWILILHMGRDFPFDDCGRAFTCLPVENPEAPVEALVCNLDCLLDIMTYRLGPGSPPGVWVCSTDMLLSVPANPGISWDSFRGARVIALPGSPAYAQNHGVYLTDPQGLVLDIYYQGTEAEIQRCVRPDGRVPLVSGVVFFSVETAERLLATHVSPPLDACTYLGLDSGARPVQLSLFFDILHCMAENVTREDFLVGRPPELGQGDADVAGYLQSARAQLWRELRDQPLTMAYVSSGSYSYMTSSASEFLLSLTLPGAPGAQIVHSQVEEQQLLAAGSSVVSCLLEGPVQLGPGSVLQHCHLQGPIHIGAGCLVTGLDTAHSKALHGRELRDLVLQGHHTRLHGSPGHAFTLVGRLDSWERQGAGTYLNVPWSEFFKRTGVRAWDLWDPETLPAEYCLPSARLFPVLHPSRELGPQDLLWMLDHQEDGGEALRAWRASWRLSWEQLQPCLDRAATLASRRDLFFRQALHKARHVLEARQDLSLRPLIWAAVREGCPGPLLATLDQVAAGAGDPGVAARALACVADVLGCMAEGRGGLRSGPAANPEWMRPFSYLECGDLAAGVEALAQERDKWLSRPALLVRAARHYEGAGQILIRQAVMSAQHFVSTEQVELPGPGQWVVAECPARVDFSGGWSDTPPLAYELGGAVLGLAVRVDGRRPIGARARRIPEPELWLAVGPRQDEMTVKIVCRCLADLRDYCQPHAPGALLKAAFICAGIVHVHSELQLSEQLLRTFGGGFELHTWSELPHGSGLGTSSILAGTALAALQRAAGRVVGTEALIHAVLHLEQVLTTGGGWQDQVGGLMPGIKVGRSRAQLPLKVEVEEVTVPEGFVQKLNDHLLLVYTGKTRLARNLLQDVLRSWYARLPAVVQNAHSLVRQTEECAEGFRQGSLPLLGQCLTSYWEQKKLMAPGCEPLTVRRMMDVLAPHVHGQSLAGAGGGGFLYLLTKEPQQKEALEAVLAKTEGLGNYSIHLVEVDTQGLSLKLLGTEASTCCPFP
# UniProt A6NHQ2: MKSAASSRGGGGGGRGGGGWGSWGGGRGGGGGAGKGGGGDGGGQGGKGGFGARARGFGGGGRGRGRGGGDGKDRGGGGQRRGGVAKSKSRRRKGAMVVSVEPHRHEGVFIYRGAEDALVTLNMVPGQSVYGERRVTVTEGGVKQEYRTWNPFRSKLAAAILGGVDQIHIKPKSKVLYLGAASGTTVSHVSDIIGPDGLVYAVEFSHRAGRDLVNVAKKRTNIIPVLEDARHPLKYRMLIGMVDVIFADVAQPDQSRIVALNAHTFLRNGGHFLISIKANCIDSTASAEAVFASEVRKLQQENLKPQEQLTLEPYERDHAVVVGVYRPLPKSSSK
# The list shows a part of the results.
# Assays:
# Assay in all cases: log2 fold change, soluble protein after heating vs DMSO (PISA); higher = thermal stabilisation; K562 cells, 10 uM, 30 min; active = over 0.2 and 3.5 SD of the protein, either way, in both replicates (recomputed)
# [1] = compound: CC[C@@H]1C(=O)N(C)c2cnc(Nc3ccc(C(=O)NC4CCN(C)CC4)cc3OC)nc2N1C1CCCC1
# Procedure, shortened: (§1)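 K562 cells at 2×10^6 cells/mL were exposed to 10 μM compound for 30 min, then aliquots were heated for 3 min across 48°C-58°C, pooled, and extracted in PBS containing 0.5% NP-40 at 4°C. The supernatant after 21,000xg for 90 min was taken as soluble protein and measured by TMTpro 16plex LC-MS/MS with channel sums equalised. Thermal stability is reported relative to control samples, with values from duplicates. Fold changes are given on a log2 scale.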
# volasertib = compound: CC[C@@H]1C(=O)N(C)c2cnc(Nc3ccc(C(=O)N[C@H]4CC[C@H](N5CCN(CC6CC6)CC5)CC4)cc3OC)nc2N1C(C)C [volasertib]
# Procedure, shortened: as §1
# [2] = compound: CC[C@H](C)N1C=C(C2=C(C=C(C=C21)C3=CN=C(C=C3)N4CCNCC4)C(=O)NCC5=C(C=C(NC5=O)C)C)C
# Procedure, shortened: as §1
# epoxomicin = compound: CC[C@H](C)[C@@H](C(=O)N[C@@H]([C@@H](C)O)C(=O)N[C@@H](CC(C)C)C(=O)[C@]1(CO1)C)NC(=O)[C@H]([C@@H](C)CC)N(C)C(=O)C [epoxomicin]
# Procedure, shortened: as §1
# [3] = compound: CCn1c(C(=O)N(C2CC2)C2CC2)cc2c3c(ncn3C)c(Nc3cc(C)n(C)n3)nc21
# Procedure, shortened: as §1
# [4] = compound: CCn1cc(-c2ccnc3[nH]c(-c4cccc(CN(C)C)c4)cc23)c(-c2ccc(NC(=O)N(C)C)cc2)n1
# Procedure, shortened: as §1
# [5] = compound: CN(C)CC(=O)Nc1ccc2[nH]c(=O)c3ccccc3c2c1
# Procedure, shortened: as §1
# rosiglitazone = compound: CN(CCOC1=CC=C(C=C1)C[C@H]2C(=O)NC(=O)S2)C3=CC=CC=N3 (racemic) [rosiglitazone]
# Procedure, shortened: as §1
# [6] = compound: CN1C2=C(C3=C1C(=O)N(N=C3)CC4=CC(=CC=C4)N)SC(=C2)S(=O)C
# Procedure, shortened: as §1
# [7] = compound: CN1CCC(CNc2ccc3ncc(-c4cccc(OC(F)(F)F)c4)n3n2)CC1
# Procedure, shortened: as §1
# saracatinib = compound: CN1CCN(CCOc2cc(OC3CCOCC3)c3c(Nc4c(Cl)ccc5c4OCO5)ncnc3c2)CC1 [saracatinib]
# Procedure, shortened: as §1
# sotrastaurin = compound: CN1CCN(c2nc(C3=C(c4c[nH]c5ccccc45)C(=O)NC3=O)c3ccccc3n2)CC1 [sotrastaurin]
# Procedure, shortened: as §1
# alvocidib = compound: CN1CC[C@H](c2c(O)cc(O)c3c(=O)cc(-c4ccccc4Cl)oc23)[C@H](O)C1 [alvocidib]
# Procedure, shortened: as §1
# Tubastatin A = compound: CN1CCc2c(c3ccccc3n2Cc2ccc(C(=O)NO)cc2)C1 [Tubastatin A]
# Procedure, shortened: as §1
# [8] = compound: CNC(=O)C1=CC=CC=C1NC2=NC(=NC=C2Cl)NC3=C(C=C(C=C3)N4CCOCC4)OC
# Procedure, shortened: as §1
# defactinib = compound: CNC(=O)c1ccc(Nc2ncc(C(F)(F)F)c(NCc3nccnc3N(C)S(C)(=O)=O)n2)cc1 [defactinib]
# Procedure, shortened: as §1
# rucaparib = compound: CNCc1ccc(-c2[nH]c3cc(F)cc4c3c2CCNC4=O)cc1 [rucaparib]
# Procedure, shortened: as §1
# [9] = compound: CNc1nc(-c2ccc3c(N)n[nH]c3c2)cc(N2C[C@@H](C(=O)NC3CCCCC3)CC[C@H]2C)n1
# Procedure, shortened: as §1
# encorafenib = compound: COC(=O)N[C@@H](C)CNc1nccc(-c2cn(C(C)C)nc2-c2cc(Cl)cc(NS(C)(=O)=O)c2F)n1 [encorafenib]
# Procedure, shortened: as §1
# [10] = compound: COC(=O)[C@H](CCSC)NC(=O)C1=C(C=C(C=C1)NC[C@H](CS)N)C2=CC=CC=C2
# Procedure, shortened: as §1
Target,log2 fold change [1],log2 fold change (volasertib),log2 fold change [2],log2 fold change (epoxomicin),log2 fold change [3],log2 fold change [4],log2 fold change [5],log2 fold change (rosiglitazone),log2 fold change [6],log2 fold change [7],log2 fold change (saracatinib),log2 fold change (sotrastaurin),log2 fold change (alvocidib),log2 fold change (Tubastatin A),log2 fold change [8],log2 fold change (defactinib),log2 fold change (rucaparib),log2 fold change [9],log2 fold change (encorafenib),log2 fold change [10]
FBXO22 (UniProt Q8NEZ5),inactive: -0.034,inactive: -0.106,inactive: 0.072,inactive: 0.072,inactive: -0.04,inactive: -0.06,inactive: 0.047,inactive: -0.018,inactive: 0.063,inactive: 0.013,inactive: 0.032,inactive: -0.03,inactive: -0.074,inactive: 0.001,inactive: -0.099,inactive: -0.056,inactive: 0.038,inactive: -0.019,inactive: 0.009,inactive: -0.043
FBLN1 (UniProt P23142),inactive: -0.022,inactive: 0.059,inactive: -0.112,inactive: -0.223,inactive: 0.094,inactive: 0.055,inactive: -0.119,inactive: -0.003,inactive: 0.339,inactive: 0.066,inactive: 0.233,inactive: 0.157,inactive: 0.148,inactive: -0.147,inactive: 0.062,inactive: -0.086,inactive: -0.085,inactive: 0.118,inactive: 0.047,inactive: 0.129
FKBP8 isoform 2 (UniProt Q14318),inactive: -0.052,inactive: -0.294,inactive: 0.049,inactive: -0.121,inactive: -0.05,inactive: 0.018,inactive: 0.015,inactive: 0.003,inactive: 0.2,inactive: -0.085,inactive: -0.126,inactive: -0.236,inactive: 0.105,inactive: 0.066,inactive: 0,inactive: 0.051,inactive: 0.279,inactive: 0.093,inactive: 0.188,inactive: -0.099
FAM210A (UniProt Q96ND0),inactive: 0.027,inactive: 0.007,inactive: -0.044,inactive: 0.01,inactive: -0.002,inactive: -0.015,inactive: 0.026,inactive: 0.013,inactive: -0.093,inactive: -0.044,inactive: 0.079,inactive: 0.113,inactive: 0.004,inactive: 0.023,inactive: -0.031,inactive: 0.021,inactive: 0.005,inactive: -0.044,inactive: -0.08,inactive: -0.006
FLT4 (UniProt P35916),inactive: 0.044,inactive: 0.02,inactive: 0.021,inactive: 0.066,inactive: 0.032,inactive: 0.03,inactive: -0.029,inactive: 0.044,inactive: -0.093,inactive: -0.038,inactive: 0.069,inactive: 0.01,inactive: -0.046,inactive: -0.033,inactive: -0.124,inactive: -0.025,inactive: 0,inactive: -0.061,inactive: -0.026,inactive: -0.063
FDX2 (UniProt Q6P4F2),inactive: -0.168,inactive: 0.056,inactive: -0.075,inactive: -0.088,inactive: -0.052,inactive: 0.005,inactive: 0.095,inactive: -0.022,inactive: 0.034,inactive: 0.113,inactive: -0.059,inactive: 0.063,inactive: -0.003,inactive: 0.002,inactive: -0.007,inactive: 0.006,inactive: 0.021,inactive: 0.058,inactive: 0.133,inactive: 0.11
FASN (UniProt P49327),inactive: -0.02,inactive: -0.089,inactive: 0.032,inactive: 0.027,inactive: -0.005,inactive: -0.065,inactive: 0.019,inactive: 0.042,inactive: -0.055,inactive: 0.002,inactive: -0.002,inactive: -0.06,inactive: -0.062,inactive: -0.006,inactive: 0.037,inactive: -0.025,inactive: -0.023,inactive: 0,inactive: 0.037,inactive: -0.018
FKBP2 (UniProt P26885),inactive: -0.02,inactive: 0.01,inactive: -0.012,inactive: -0.017,inactive: 0.047,inactive: -0.058,inactive: -0.026,inactive: -0.022,inactive: -0.043,inactive: -0.017,inactive: -0.047,inactive: -0.029,inactive: -0.06,inactive: -0.033,inactive: 0.058,inactive: 0.006,inactive: 0.032,inactive: -0.009,inactive: 0.011,inactive: 0.013
FLOT2 (UniProt Q14254),inactive: 0.111,inactive: 0.175,inactive: -0.025,inactive: 0.091,inactive: -0.018,inactive: 0.144,inactive: 0.079,inactive: -0.07,inactive: 0.248,inactive: 0.404,inactive: -0.163,inactive: -0.084,inactive: 0.14,inactive: 0.125,inactive: -0.045,inactive: 0.106,inactive: 0.209,inactive: 0.073,inactive: 0.186,inactive: -0.095
FERMT3 (UniProt Q86UX7),inactive: -0.07,active: -0.262,inactive: 0.053,inactive: 0.019,,inactive: -0.04,inactive: 0.045,,inactive: -0.021,inactive: -0.149,inactive: 0.019,inactive: -0.016,,inactive: -0.003,inactive: 0.008,inactive: -0.069,inactive: -0.003,inactive: 0.036,inactive: 0.063,inactive: -0.03
FGFR1OP (UniProt O95684),inactive: 0.017,inactive: -0.046,inactive: 0.001,inactive: -0.001,inactive: -0.008,inactive: 0.012,inactive: 0.002,inactive: 0.023,inactive: -0.051,inactive: 0.087,inactive: 0.036,inactive: -0.024,inactive: -0.059,inactive: 0.054,inactive: 0.004,inactive: -0.032,inactive: 0.017,inactive: -0.01,inactive: -0.008,inactive: -0.004
FKBP7 (UniProt Q9Y680),inactive: 0.035,inactive: 0.021,inactive: 0.015,inactive: -0.04,,inactive: 0.026,inactive: -0.042,,inactive: -0.001,inactive: 0.191,inactive: 0.073,inactive: 0.056,,inactive: -0.026,inactive: 0.008,inactive: -0.032,inactive: 0.01,inactive: 0.031,inactive: 0.044,inactive: 0.036
FAM98A (UniProt Q8NCA5),inactive: 0.17,inactive: 0.07,inactive: 0.039,inactive: -0.103,inactive: -0.098,inactive: -0.064,inactive: -0.003,inactive: -0.164,inactive: 0.279,inactive: 0.121,inactive: -0.058,inactive: 0.004,inactive: 0.166,inactive: 0.089,inactive: 0.047,inactive: 0.204,inactive: 0.245,inactive: 0.146,inactive: 0.125,inactive: -0.039
FCSK isoform 2 (UniProt Q8N0W3),inactive: 0.014,inactive: 0.043,inactive: -0.007,inactive: 0.031,inactive: 0.006,inactive: -0.029,inactive: -0.008,inactive: -0.034,inactive: -0.023,inactive: 0.003,inactive: 0.074,inactive: 0.009,inactive: -0.031,inactive: 0.002,inactive: -0.018,inactive: -0.026,inactive: 0.007,inactive: -0.047,inactive: -0.021,inactive: -0.028
FBLL1 (UniProt A6NHQ2),inactive: 0.229,inactive: 0.083,inactive: -0.037,inactive: -0.119,inactive: 0.044,inactive: 0.26,inactive: -0.119,inactive: -0.179,inactive: 0.346,inactive: 0.508,inactive: -0.001,inactive: -0.039,inactive: 0.15,inactive: -0.001,inactive: -0.182,inactive: 0.261,inactive: 0.447,inactive: 0.021,inactive: 0.079,inactive: -0.13
FAM83D (UniProt Q9H4H8),inactive: -0.097,inactive: -0.139,inactive: 0,inactive: -0.082,,inactive: -0.115,inactive: 0.085,,inactive: 0.006,inactive: 0.042,inactive: -0.014,inactive: -0.055,,inactive: -0.002,inactive: -0.004,inactive: -0.074,inactive: 0.078,inactive: 0.03,inactive: 0.071,inactive: -0.023

# Some of the entries so far, as tab-separated lines:
Target	log2 fold change [1]	log2 fold change (volasertib)	log2 fold change [2]	log2 fold change (epoxomicin)	log2 fold change [3]	log2 fold change [4]	log2 fold change [5]	log2 fold change (rosiglitazone)	log2 fold change [6]	log2 fold change [7]	log2 fold change (saracatinib)	log2 fold change (sotrastaurin)	log2 fold change (alvocidib)	log2 fold change (Tubastatin A)	log2 fold change [8]	log2 fold change (defactinib)	log2 fold change (rucaparib)	log2 fold change [9]	log2 fold change (encorafenib)	log2 fold change [10]
FDX2 (UniProt Q6P4F2)	inactive: -0.168	inactive: 0.056	inactive: -0.075	inactive: -0.088	inactive: -0.052	inactive: 0.005	inactive: 0.095	inactive: -0.022	inactive: 0.034	inactive: 0.113	inactive: -0.059	inactive: 0.063	inactive: -0.003	inactive: 0.002	inactive: -0.007	inactive: 0.006	inactive: 0.021	inactive: 0.058	inactive: 0.133	inactive: 0.11
FASN (UniProt P49327)	inactive: -0.02	inactive: -0.089	inactive: 0.032	inactive: 0.027	inactive: -0.005	inactive: -0.065	inactive: 0.019	inactive: 0.042	inactive: -0.055	inactive: 0.002	inactive: -0.002	inactive: -0.06	inactive: -0.062	inactive: -0.006	inactive: 0.037	inactive: -0.025	inactive: -0.023	inactive: 0	inactive: 0.037	inactive: -0.018
